Record: PubChem BioAssay AID1259254 (NCATS, 2017)

- Test: 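Genome-wide screen for genes that prevent DNA re-replication in cancer cells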 (primary screen)
- Cell system: human HCT116 colorectal cancer cells
- Knock-down reagent: single siRNA against human genes
- Timing: 3 days
- Measurement: 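Imaged Hoechst DNA stain sorts each cell into a cycle phase by DNA amount; per plate, G2 fraction set to 0% for non-targeting and 100% for GMNN siRNA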
- Reading the numbers: G2 robust z-score and G2 cells, % of GMNN control: higher = more G2 cells, more excess DNA replication
- Rule for the call: 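Active siRNAs have a G2 robust z of 5 or more median absolute deviations over the median, which in these data means about 38% or higher of GMNN control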
This is a random part of about 59,000 reagents. In the full data, about 1,550 (2.6%) are marked active. 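G2 share is only a proxy for re-replication; each gene was hit by three separate siRNAs, and active genes were retested.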 A number with no mark means an inactive call. The numbers tell different reagents against one gene apart. Not all columns of the deposit are shown. Not given: the amount of reagent.

After knock-down of FAM86C2P #1, the screen gave G2 robust z-score 3.6; G2 cells, % of GMNN control 28.3.
After knock-down of FAM86C2P #2, the screen gave G2 robust z-score 0.405; G2 cells, % of GMNN control 5.82.
Against FAM86C2P #3 the deposit lists G2 robust z-score -0.53; G2 cells, % of GMNN control -0.763.
Against CDH16 #1, the values are G2 robust z-score -1.17; G2 cells, % of GMNN control -5.26.
CDH16 #2 gave G2 robust z-score 1.39; G2 cells, % of GMNN control 12.7.
After knock-down of CDH16 #3 the results were G2 robust z-score 0.754; G2 cells, % of GMNN control 8.27.
Knock-down of ZNF480 #1 came out at: G2 robust z-score 0.713; G2 cells, % of GMNN control 7.99.
Depletion of ZNF480 #2 came out at: G2 robust z-score -0.333; G2 cells, % of GMNN control 0.624.
After knock-down of ZNF480 #3, the screen gave G2 robust z-score -0.982; G2 cells, % of GMNN control -3.94.
IKZF5 #1 showed G2 robust z-score 0.00712; G2 cells, % of GMNN control 3.02.
Knock-down of IKZF5 #2 came out at: G2 robust z-score -0.514; G2 cells, % of GMNN control -0.65.
Knock-down of IKZF5 #3 gave: G2 robust z-score 2.09; G2 cells, % of GMNN control 17.7.
Silencing of TMEM257 (retired record) #1 gave: G2 robust z-score -0.0606; G2 cells, % of GMNN control 2.54.
TMEM257 (retired record) #2 scored G2 robust z-score -0.774; G2 cells, % of GMNN control -2.47.
After knock-down of TMEM257 (retired record) #3, the screen gave G2 robust z-score 3.65; G2 cells, % of GMNN control 28.6.
Depletion of RNASE7 #1 came out at: G2 robust z-score 0.625; G2 cells, % of GMNN control 7.36.
With knock-down of RNASE7 #2, the record shows G2 robust z-score 0.624; G2 cells, % of GMNN control 7.36.
Against RNASE7 #3, the entry reads G2 robust z-score 4.65; G2 cells, % of GMNN control 35.6.

3 entries already listed, ordered by “G2 cells, % of GMNN control”, ascending:
TMEM257 (retired record) #2 — G2 robust z-score: -0.774; G2 cells, % of GMNN control: -2.47
RNASE7 #1 — G2 robust z-score: 0.625; G2 cells, % of GMNN control: 7.36
TMEM257 (retired record) #3 — G2 robust z-score: 3.65; G2 cells, % of GMNN control: 28.6
